Experimental data reported in PMC5997791.
No constants are given. Whether binding was seen depends on the method and setting. In cells and extracts the contact can be indirect. Some binding calls cover weakened binding; strength is not graded here.

Molecular target: T1, NADPH oxidase p47phox (mouse (endogenous in RAW264.7)) (UniProt Q09014)
T1 sequence: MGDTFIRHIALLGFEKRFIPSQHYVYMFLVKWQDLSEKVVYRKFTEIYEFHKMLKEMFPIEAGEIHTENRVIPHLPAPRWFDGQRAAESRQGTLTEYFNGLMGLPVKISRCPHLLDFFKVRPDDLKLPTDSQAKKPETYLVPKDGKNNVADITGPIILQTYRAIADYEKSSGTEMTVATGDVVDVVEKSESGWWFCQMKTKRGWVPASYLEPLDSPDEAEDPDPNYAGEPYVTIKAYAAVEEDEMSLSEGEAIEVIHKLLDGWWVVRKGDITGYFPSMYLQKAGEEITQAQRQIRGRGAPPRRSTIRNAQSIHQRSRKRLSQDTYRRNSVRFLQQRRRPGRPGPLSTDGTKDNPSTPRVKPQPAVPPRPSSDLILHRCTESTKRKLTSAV
Assay: co-IP; RAW264.7 cells stimulated with different doses of oxLDL for 4 h or left untreated; NP-40 lysis buffer (50 mM HEPES pH 7.4, 150 mM NaCl, 1% NP-40, 1 mM EDTA); lysates incubated with anti-p47 protein A/G agarose beads overnight at 4°C; washed four times with lysis buffer with 300 mM NaCl added; Western blotting

binding: binds
B1: caveolin-1 (protein, UniProt P49817 1-178)
chain: MSGGKYVDSEGHLYTVPIREQGNIYKPNNKAMADEVTEKQVYDAHTKEIDLVNRDPKHLNDDVVKIDFEDVIAEPEGTHSFDGIWKASFTTFTVTKYWFYRLLSTIFGIPMALIWGIYFAILSFLHIWAVVPCIKSFLIEIQCISRVYSIYVHTFCDPLFEAIGKIFSNIRISTQKEI
